According to publication PMC4296509:
No constants are given. Whether binding was seen depends on the method and setting. Binding seen in cells or lysates may run through a third protein. Some binding calls cover weakened binding; strength is not graded here. Tags and fused reporters may be left off the sequences shown.

T1: GST fusion of MEG-1 (C. elegans) (UniProt Q21126)
T1 sequence: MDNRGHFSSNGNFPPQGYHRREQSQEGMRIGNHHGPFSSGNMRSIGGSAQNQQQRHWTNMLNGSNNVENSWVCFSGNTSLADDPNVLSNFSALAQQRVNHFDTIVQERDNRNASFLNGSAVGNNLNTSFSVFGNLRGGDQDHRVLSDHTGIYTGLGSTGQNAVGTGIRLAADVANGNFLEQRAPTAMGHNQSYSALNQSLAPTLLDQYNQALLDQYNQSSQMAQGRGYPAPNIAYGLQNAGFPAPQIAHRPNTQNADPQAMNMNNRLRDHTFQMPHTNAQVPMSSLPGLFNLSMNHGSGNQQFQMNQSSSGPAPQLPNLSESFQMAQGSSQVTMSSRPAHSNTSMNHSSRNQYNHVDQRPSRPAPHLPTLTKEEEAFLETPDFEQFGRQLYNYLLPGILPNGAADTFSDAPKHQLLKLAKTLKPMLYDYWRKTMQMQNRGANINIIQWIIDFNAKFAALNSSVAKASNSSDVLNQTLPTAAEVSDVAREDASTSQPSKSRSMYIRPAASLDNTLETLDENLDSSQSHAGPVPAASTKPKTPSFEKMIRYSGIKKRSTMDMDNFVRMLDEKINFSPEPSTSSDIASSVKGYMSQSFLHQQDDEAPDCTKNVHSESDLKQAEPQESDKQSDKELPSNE


Target: T1, GST fusion of MEG-1 (C. elegans)
Experiment: pull-down; GST fusions bound to GST beads and washed; incubated with MBP fusions (E. coli lysates) at 4°C for 1 hr in 50 mM Hepes pH 7.4, 1 mM EGTA, 1 mM MgCl2, 500 mM KCl, 10% glycerol, 0.05% NP-40; eluted with 10 mM reduced glutathione; Western; only the target purified

Row | Binder | binding
1 | MBP fusion of PGL-1 (protein, UniProt Q9TZQ3 1-730) MEANKREIVDFGGLRSYFFPNLAHYITKNDEELFNNTSQANKLAAFVLGASKDAPGDEDILEMILPNDANAAVIAAGMDVCLLLGDKFRPKFDAAAEKLSGLGHAHDLVSVIDDDKKLGMLARKAKLKKTEDAKILQALLKVIAIDDAAEKFVELTELVSQLDLDFDVYVLTKILGLISEETSDEVDIIRDNVVNAFDSCKPLLKQLMLDGPKSEPADPFISLLMDPLEESVGKVVNHIAQLFEEASKNEGDESLVLRSQLGYQLFFLIVRSLADGKREVSKKILSGIPTSVRAEVFPGLQRSVYKSAVFLGNHIIQVLLGSKKSFEDWDVVGVAKDLESAWKRRAIAELIKKFQVSILEQCFDKPVPLIPQSPLNNDAVIDNVNKALQFALWLTEFYGSENETEALGELRFLDSTSKNLLVDSFKKFVQGINSKTHVTRIVESLEKCCLSDTPSGRKSNVQPSTSQQQDSAYTKEEMTTVHNTYSVNTKAQVLNGLSDTNSSGLLVDSKDSLSLQEISCDEVDSSTLLSSSRNIGEGVTVKAVDPVPEKVNDAQQQQTVNEIEMASDANQDTSSSASPEVAPSFSTDGWDSPTKSVALPPGMQQIDEEETTVADKDSTPQPQARAETAWGSGDATPMPLPAPTNQYKVSGFGEAKVAKGFGQFAPTSSAYGGGGGRGGYGGGDRGGRGGYGGDRGGRGGYGGGDRGGRGGYGGDRGRGGYGGRGGRGGF | binds
2 | MBP fusion of PAA-1, the scaffolding subunit of PP2A (protein, UniProt Q09543 1-590) MSVVEEATDDALYPIAVLIDELRNEDVTLRLNSIRKLSTIALALGVERTRNELIQFLTDTIYDEDEVLLVLAEQLGNFTPLVGGPDHVHCLLLPLENLATVEETVVRDKAVESLRKIADKHSSASLEEHFVPMLRRLATGDWFTSRTSACGLFSVVYPRVSPAIKSELKSMFRTLCRDDTPMVRRAAAAKLGEFAKVFEKTAVIEGLHSSLTDLHVDEQDSVRLLTVESAIAFGTLLDKANKKKLIEPILIELFDDKSWRVRYMVAEKLIEIQNVLGEDMDTTHLVNMYTNLLKDPEGEVRCAATQRLQEFALNLPEDKRQNIICNSLLNVAKELVTDGNQLVKSELAGVIMGLAPLIGKEQTVSELLPIYMQLLNDQTPEVRLNIISSLDKVNEVIGAAQLSTSLLPAIVGLAEDGKWRVRLAIVQFMPLLASQLGQEFFDEKLLPLCLNWLTDHVFSIREASTLIMKELTQKFGGQWASTNIVPKMQKLQKDTNYLQRMTCLFCLNTLSEAMTQEQILKEIMPIVKDLVEDDVPNVRFNAAKSLKRIGKNLTPSTLTSEVKPLLEKLGKDSDFDVRYFSEEAKNSLGL | no binding
